Measurements from patent publication US20250288512A1, “USE OF CELL MEMBRANE-BOUND SIGNALING FACTORS” (AIVITA Biomedical, Inc., priority 2016, published 2025).

System: hESC
Test: Capture of lipid-modified Wnt/Shh proteins from embryonic stem cell cultures by cyclodextrin solution
Type: cell-based, human
Settings: 10 mM cyclodextrin, 3 hr exposure
Experimental: Embryonic stem cells were expanded according to current published methods using a serum free media supplemented with bFGF (10 ng/ml) and activin A (5 ng/ml) on an adherent substrate consisting on a thin layer of MATRIGEL®. After confluence, half of the cultures were fed with the same media not including the growth factors bFGF and Activin A. A cell culture supernatant sample was analyzed for follistatin concentration.
Individual cultures, undifferentiated or partial differentiated, were exposed to 10 mM solution of α-cyclodextrin, β-cyclodextrin, γ-cyclodextrin, or methyl-β-cyclodextrin (MBCD) for 60 min to 180 min. The cell cultures before exposure were smooth, compact, and multilayered (FIG. 5A). After incubation with a cyclodextrin, the cultures were disrupted with the majority of cells losing adherence (FIG. 5B).
The MBCD solution incubated with the cells was then analyzed for the concentration of Shh, Wnt 3a, and Wnt7a.

## methyl-β-cyclodextrin [methyl-beta-cyclodextrin]
Partial differentiated hESC
  Concentration of Shh in the methyl-beta-cyclodextrin capture solution: 570.900 ng/mL
  Concentration of Wnt3a in the methyl-beta-cyclodextrin capture solution: 7.720 ng/mL
  Concentration of Wnt7b in the methyl-beta-cyclodextrin capture solution: 24.658 ng/mL
Undifferentiated hESC
  Concentration of Shh in the methyl-beta-cyclodextrin capture solution: 0.000 ng/mL
  Concentration of Wnt3a in the methyl-beta-cyclodextrin capture solution: 7.950 ng/mL
  Concentration of Wnt7b in the methyl-beta-cyclodextrin capture solution: 27.026 ng/mL
